{"source": "PubChem BioAssay AID1159579 – Peter MacCallum Cancer Centre – 2015", "test": "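Follow-up screen seeking modulators of motility in lymphatic endothelial cells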 (follow-up of hits)", "system": "human dermal lymphatic endothelial cells", "reagents": "single siRNA against human genes, 25 nM", "measurement": "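Scratch wound imaging measuring area filled by moving cells plus nuclei number, averaged over two wells and scaled to mock-transfected controls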", "direction": "migration relative to mock: higher = more migration into the scratch; mean nuclei count: higher = more cells remaining", "call rule": "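a ratio of at most 0.6 or at least 1.3 marks altered migration and an active call; a mean nuclei count under 3300 forces an inactive call regardless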", "calls": "active = migration changed (impaired or accelerated); inactive = no migration change, or too few cells", "note": "The deposit covers about 2,000 reagents; below is a random part of them. In the full data, 549 (27%) were called active. 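Some migration ratios are negative; siRNAs with too few cells are inactive whatever their migration ratio.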 The numbers tell different reagents against one gene apart. No sequences are given here. Not stated in the record: the time to read-out."}
{"Target gene":"CCDC57","reagent":1,"migration relative to mock":1.06,"migration and cell number class":"no change in migration or cell number","mean nuclei count":6263,"Call":"inactive"}
{"Target gene":"CCDC57","reagent":2,"migration relative to mock":1.15,"migration and cell number class":"no change in migration or cell number","mean nuclei count":5917,"Call":"inactive"}
{"Target gene":"CCDC57","reagent":3,"migration relative to mock":0.96,"migration and cell number class":"no change in migration or cell number","mean nuclei count":6368,"Call":"inactive"}
{"Target gene":"CCDC57","reagent":4,"migration relative to mock":0.77,"migration and cell number class":"no change in migration or cell number","mean nuclei count":5672,"Call":"inactive"}
{"Target gene":"GLTPD2","reagent":1,"migration relative to mock":1.08,"migration and cell number class":"no change in migration or cell number","mean nuclei count":6160,"Call":"inactive"}
{"Target gene":"GLTPD2","reagent":2,"migration relative to mock":0.64,"migration and cell number class":"no change in migration or cell number","mean nuclei count":5187,"Call":"inactive"}
{"Target gene":"GLTPD2","reagent":3,"migration relative to mock":1.22,"migration and cell number class":"no change in migration or cell number","mean nuclei count":6929,"Call":"inactive"}
{"Target gene":"GLTPD2","reagent":4,"migration relative to mock":0.72,"migration and cell number class":"no change in migration or cell number","mean nuclei count":7158,"Call":"inactive"}
{"Target gene":"AHCY","reagent":1,"migration relative to mock":0.78,"migration and cell number class":"no change in migration or cell number","mean nuclei count":5008,"Call":"inactive"}
{"Target gene":"AHCY","reagent":2,"migration relative to mock":0.84,"migration and cell number class":"no change in migration or cell number","mean nuclei count":6146,"Call":"inactive"}
{"Target gene":"AHCY","reagent":3,"migration relative to mock":0.94,"migration and cell number class":"no change in migration or cell number","mean nuclei count":4354,"Call":"inactive"}
{"Target gene":"AHCY","reagent":4,"migration relative to mock":0.24,"migration and cell number class":"migration reduced","mean nuclei count":4488,"Call":"active"}
{"Target gene":"SEPTIN6","reagent":1,"migration relative to mock":0.61,"migration and cell number class":"no change in migration or cell number","mean nuclei count":4624,"Call":"inactive"}
{"Target gene":"SEPTIN6","reagent":2,"migration relative to mock":-0.6,"migration and cell number class":"too few cells; migration not scored","mean nuclei count":2648,"Call":"inactive"}
{"Target gene":"SEPTIN6","reagent":3,"migration relative to mock":0.54,"migration and cell number class":"migration reduced","mean nuclei count":4761,"Call":"active"}
{"Target gene":"SEPTIN6","reagent":4,"migration relative to mock":0.74,"migration and cell number class":"no change in migration or cell number","mean nuclei count":4624,"Call":"inactive"}

Records above called active:
{"Target gene":"AHCY","reagent":4,"migration relative to mock":0.24,"migration and cell number class":"migration reduced","mean nuclei count":4488,"Call":"active"}
{"Target gene":"SEPTIN6","reagent":3,"migration relative to mock":0.54,"migration and cell number class":"migration reduced","mean nuclei count":4761,"Call":"active"}

Additional entries follow.
{"Target gene":"NME3","reagent":1,"migration relative to mock":0.67,"migration and cell number class":"no change in migration or cell number","mean nuclei count":5189,"Call":"inactive"}
{"Target gene":"NME3","reagent":2,"migration relative to mock":0.63,"migration and cell number class":"no change in migration or cell number","mean nuclei count":5742,"Call":"inactive"}
{"Target gene":"NME3","reagent":3,"migration relative to mock":0.4,"migration and cell number class":"migration reduced","mean nuclei count":3848,"Call":"active"}
{"Target gene":"NME3","reagent":4,"migration relative to mock":0.87,"migration and cell number class":"no change in migration or cell number","mean nuclei count":5974,"Call":"inactive"}
{"Target gene":"PDXK","reagent":1,"migration relative to mock":0.92,"migration and cell number class":"no change in migration or cell number","mean nuclei count":5490,"Call":"inactive"}
{"Target gene":"PDXK","reagent":2,"migration relative to mock":0.88,"migration and cell number class":"no change in migration or cell number","mean nuclei count":7339,"Call":"inactive"}
{"Target gene":"PDXK","reagent":3,"migration relative to mock":0.93,"migration and cell number class":"no change in migration or cell number","mean nuclei count":6526,"Call":"inactive"}
{"Target gene":"PDXK","reagent":4,"migration relative to mock":0.72,"migration and cell number class":"no change in migration or cell number","mean nuclei count":5888,"Call":"inactive"}
